We go through 9 targets from the supplement of paper PMC11732987, “Enantioselective OTUD7B fragment discovery through chemoproteomics screening and high-throughput optimisation” (Communications Chemistry, 2025).

Protein sequences, listed by entry. Tags and fused reporters are not part of them. Lines headed by an entry give the natural chain unless they say otherwise; changes in a name come on top. Residues count along the entry.
UniProt Q8NC96, 2-21: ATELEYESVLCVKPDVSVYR
UniProt Q9Y6Q9: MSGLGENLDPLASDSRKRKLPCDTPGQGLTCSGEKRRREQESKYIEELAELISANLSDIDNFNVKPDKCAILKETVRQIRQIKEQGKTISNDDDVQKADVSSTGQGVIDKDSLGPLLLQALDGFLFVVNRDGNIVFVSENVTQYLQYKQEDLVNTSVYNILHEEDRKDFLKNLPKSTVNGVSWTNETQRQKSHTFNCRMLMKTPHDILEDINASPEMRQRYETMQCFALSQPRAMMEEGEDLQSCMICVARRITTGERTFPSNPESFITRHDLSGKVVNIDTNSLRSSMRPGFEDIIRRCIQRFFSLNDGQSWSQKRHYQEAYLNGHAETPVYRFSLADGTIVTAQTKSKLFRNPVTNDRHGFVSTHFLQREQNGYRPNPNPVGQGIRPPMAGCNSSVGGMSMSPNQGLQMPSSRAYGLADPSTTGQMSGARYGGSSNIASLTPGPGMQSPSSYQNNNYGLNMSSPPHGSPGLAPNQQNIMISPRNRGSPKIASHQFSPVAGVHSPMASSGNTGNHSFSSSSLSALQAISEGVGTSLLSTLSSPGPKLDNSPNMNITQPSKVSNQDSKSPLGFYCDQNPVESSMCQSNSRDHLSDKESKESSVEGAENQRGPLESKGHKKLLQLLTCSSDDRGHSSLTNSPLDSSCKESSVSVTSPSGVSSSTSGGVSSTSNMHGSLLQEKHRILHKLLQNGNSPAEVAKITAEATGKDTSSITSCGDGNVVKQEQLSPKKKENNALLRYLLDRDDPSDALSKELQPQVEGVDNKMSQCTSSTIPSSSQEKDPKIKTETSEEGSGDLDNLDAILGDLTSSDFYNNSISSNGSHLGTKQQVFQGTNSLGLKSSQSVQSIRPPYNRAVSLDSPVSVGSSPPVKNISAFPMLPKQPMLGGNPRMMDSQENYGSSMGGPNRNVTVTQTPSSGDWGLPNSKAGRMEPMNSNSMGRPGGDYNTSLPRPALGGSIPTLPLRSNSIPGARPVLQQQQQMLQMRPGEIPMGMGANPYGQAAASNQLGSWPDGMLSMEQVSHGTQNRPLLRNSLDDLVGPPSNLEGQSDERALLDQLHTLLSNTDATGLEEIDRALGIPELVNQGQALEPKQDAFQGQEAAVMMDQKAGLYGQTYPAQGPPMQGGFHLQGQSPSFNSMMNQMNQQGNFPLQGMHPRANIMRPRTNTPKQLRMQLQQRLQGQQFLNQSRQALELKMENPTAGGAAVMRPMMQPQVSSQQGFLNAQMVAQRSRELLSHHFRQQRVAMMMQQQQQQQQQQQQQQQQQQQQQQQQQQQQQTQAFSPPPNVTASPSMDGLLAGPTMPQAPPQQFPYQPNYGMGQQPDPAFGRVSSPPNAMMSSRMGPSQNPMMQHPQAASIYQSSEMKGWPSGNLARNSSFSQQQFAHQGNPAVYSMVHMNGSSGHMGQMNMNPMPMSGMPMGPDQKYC
UniProt Q76FK4: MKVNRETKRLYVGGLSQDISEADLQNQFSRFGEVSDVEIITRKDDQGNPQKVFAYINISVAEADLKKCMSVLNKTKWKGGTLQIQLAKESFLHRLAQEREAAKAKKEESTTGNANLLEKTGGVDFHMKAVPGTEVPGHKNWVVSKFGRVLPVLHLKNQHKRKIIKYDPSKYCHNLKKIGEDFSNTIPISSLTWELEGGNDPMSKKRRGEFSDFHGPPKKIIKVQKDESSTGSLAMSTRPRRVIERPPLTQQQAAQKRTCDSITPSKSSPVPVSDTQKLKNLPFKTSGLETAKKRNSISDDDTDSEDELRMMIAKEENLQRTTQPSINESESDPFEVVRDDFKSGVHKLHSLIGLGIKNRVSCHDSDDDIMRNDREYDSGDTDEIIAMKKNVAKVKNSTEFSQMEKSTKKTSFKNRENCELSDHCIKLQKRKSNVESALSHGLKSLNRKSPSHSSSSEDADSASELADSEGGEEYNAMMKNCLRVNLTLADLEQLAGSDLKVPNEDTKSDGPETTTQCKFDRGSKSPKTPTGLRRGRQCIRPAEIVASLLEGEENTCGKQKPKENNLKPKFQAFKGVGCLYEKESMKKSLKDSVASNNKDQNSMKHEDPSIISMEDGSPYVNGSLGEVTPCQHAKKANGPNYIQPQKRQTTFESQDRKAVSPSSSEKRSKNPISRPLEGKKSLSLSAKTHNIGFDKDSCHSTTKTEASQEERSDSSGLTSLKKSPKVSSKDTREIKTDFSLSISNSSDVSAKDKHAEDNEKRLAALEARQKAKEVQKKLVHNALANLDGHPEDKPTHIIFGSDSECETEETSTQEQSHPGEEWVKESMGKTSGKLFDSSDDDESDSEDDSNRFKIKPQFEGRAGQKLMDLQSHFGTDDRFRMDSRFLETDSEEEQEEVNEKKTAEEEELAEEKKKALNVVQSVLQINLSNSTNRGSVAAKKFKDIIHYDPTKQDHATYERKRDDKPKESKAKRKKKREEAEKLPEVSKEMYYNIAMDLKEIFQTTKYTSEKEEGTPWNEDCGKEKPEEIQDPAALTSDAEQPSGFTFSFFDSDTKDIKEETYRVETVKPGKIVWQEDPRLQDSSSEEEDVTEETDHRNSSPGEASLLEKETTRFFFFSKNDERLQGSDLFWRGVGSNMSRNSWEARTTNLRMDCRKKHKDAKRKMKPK
UniProt P51956: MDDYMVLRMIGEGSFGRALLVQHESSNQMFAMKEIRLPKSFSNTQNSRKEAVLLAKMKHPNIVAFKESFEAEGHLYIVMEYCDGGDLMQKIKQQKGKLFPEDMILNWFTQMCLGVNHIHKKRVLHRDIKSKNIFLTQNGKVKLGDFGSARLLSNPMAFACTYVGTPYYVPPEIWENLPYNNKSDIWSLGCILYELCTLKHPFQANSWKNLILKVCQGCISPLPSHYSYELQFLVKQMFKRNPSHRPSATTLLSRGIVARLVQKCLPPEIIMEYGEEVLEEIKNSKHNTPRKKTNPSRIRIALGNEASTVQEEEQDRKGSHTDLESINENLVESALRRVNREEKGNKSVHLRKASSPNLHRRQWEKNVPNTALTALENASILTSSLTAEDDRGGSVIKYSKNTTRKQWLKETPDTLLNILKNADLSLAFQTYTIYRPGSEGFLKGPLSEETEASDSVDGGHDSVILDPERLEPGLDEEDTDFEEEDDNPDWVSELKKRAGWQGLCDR
UniProt Q96PY6: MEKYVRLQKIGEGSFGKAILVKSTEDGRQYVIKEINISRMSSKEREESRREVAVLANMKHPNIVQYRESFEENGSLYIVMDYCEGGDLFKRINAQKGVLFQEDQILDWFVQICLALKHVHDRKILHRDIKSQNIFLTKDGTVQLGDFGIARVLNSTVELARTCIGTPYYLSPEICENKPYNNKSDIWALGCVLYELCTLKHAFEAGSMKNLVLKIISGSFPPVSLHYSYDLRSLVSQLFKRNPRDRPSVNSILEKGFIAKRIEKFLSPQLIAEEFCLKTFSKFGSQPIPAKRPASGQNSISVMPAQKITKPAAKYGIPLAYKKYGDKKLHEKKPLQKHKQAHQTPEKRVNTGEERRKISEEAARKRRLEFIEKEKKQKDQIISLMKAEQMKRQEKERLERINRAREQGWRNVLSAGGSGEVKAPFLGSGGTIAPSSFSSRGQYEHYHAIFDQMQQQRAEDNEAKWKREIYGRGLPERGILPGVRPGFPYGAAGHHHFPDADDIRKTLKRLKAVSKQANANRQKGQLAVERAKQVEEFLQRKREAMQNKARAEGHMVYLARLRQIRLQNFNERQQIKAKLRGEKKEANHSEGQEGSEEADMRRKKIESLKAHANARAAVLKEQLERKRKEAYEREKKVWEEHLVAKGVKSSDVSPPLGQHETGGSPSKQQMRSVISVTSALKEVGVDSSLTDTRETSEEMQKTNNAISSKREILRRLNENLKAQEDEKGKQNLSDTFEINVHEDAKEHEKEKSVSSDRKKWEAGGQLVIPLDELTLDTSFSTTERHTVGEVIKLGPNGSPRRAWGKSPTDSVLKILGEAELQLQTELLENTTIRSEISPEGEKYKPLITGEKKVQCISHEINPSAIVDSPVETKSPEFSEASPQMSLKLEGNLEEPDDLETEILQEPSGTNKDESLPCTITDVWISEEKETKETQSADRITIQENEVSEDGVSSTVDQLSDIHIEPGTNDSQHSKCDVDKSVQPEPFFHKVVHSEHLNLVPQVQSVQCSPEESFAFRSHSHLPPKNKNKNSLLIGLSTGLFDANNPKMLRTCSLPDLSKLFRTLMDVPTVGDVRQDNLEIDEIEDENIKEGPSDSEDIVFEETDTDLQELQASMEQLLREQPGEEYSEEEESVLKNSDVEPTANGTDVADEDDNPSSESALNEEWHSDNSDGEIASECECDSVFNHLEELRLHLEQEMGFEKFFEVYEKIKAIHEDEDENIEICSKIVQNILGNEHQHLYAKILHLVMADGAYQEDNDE
UniProt Q6P4R8, whole entry, looked up: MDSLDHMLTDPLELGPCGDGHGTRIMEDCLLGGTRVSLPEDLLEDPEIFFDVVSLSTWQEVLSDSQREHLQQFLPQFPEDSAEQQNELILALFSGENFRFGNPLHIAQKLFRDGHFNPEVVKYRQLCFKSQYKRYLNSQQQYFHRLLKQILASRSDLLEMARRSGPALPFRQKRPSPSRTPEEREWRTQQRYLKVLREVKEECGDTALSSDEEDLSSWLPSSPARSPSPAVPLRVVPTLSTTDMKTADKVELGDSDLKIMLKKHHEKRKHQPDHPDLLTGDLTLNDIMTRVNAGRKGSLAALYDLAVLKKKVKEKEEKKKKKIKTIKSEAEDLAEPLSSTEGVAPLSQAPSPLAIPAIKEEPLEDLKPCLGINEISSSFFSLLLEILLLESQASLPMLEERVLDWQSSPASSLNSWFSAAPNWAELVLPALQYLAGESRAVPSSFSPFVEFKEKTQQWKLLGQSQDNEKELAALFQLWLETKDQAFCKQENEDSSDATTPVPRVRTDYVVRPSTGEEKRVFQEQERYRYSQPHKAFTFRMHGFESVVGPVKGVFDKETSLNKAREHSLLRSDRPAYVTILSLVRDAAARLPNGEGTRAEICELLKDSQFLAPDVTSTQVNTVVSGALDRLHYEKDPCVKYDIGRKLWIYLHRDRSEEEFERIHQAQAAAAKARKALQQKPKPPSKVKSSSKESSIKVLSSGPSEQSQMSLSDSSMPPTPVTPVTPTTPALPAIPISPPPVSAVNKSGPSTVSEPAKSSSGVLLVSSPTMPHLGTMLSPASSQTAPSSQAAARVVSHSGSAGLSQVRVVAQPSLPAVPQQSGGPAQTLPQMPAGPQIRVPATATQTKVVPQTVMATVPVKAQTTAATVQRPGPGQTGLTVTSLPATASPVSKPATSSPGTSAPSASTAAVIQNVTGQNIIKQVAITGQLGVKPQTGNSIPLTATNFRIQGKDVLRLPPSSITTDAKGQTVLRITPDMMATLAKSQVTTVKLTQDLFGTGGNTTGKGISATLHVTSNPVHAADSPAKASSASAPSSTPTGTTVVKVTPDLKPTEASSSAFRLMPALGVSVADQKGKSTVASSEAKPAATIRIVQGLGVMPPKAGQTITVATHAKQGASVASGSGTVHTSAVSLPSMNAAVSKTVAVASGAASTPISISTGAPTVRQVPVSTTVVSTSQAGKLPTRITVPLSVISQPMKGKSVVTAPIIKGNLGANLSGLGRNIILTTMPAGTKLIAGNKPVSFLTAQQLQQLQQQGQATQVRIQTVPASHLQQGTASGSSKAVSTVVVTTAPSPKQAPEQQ
UniProt Q9UK39: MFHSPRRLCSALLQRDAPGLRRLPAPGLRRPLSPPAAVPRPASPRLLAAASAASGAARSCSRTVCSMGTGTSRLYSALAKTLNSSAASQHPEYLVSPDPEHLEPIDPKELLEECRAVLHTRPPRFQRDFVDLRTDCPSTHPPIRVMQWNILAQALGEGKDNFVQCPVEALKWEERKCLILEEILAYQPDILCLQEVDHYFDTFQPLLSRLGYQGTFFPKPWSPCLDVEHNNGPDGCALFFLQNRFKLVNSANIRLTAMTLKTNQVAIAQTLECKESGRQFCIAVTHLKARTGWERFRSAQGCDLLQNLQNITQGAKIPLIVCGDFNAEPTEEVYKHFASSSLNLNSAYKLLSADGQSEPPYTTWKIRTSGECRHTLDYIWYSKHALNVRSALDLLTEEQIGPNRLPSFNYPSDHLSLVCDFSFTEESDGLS
UniProt O00567, 454-480: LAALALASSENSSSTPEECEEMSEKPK

The list shows a part of the results. The data scatter; read single values as rough.

Compound in experiment [1]: ClCC(=O)N[C@@H]1CCCc2ccccc12
The experiment in a line: log2 mean competition ratio of IA-DTB cysteine labelling (DMSO/compound) (log2 ratio); higher = stronger cysteine engagement by compound. To be noted: treatment time: 4 h, cell line lysate: HEK293T. The protocol: (§1)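 IA-DTB competitive cysteine chemoproteomics in HEK293T RIPA lysate. Lysates were treated with compound 29 or 30 at 50 or 200 µM for 4 h, then IA-DTB (500 µM, 1 h), trypsin-digested, NeutrAvidin-enriched and analysed by diaPASEF. Competition ratio = intensity DMSO / intensity compound (n=4 treated, n=64 DMSO); binding: mean log2 CR ≥ 1 and p ≤ 0.05 plus QC filters. Target is the cysteine site.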

Compound in experiment [2]: ClCC(=O)N[C@H]1CCCc2ccccc12
Described as above. To be noted: treatment time: 4 h, cell line lysate: HEK293T. The protocol:
as §1

As for NECAP1 C12 (UniProt Q8NC96), the “log2 mean competition ratio” value in experiment [1] (50 µM) is -0.109; in experiment [1] (200 µM) it was -0.329; in experiment [2] (50 µM) it was 0.169; in experiment [2] (200 µM), -0.129.

With NCOA3 C627 (UniProt Q9Y6Q9), the “log2 mean competition ratio” value was found to be 0.2 in experiment [1] (50 µM), 0.733 in experiment [1] (200 µM), 0.0244 in experiment [2] (50 µM) and 0.0858 in experiment [2] (200 µM).

In the case of NOL8 C1020 (UniProt Q76FK4), the “log2 mean competition ratio” value in experiment [1] (50 µM) is -0.15; in experiment [1] (200 µM), -0.179; in experiment [2] (50 µM) it was -0.461; in experiment [2] (200 µM), -0.183.

Take NEK3 C504 (UniProt P51956): the “log2 mean competition ratio” value was 0.182 in experiment [1] (50 µM), 0.119 in experiment [1] (200 µM), 0.0203 in experiment [2] (50 µM) and 0.16 in experiment [2] (200 µM).

NEK1 C1223 (UniProt Q96PY6): the “log2 mean competition ratio” value in experiment [1] (50 µM) is -0.262; in experiment [1] (200 µM) it was 0.0521; in experiment [2] (50 µM), -0.475; in experiment [2] (200 µM), 0.0612.

Consider NFRKB C637 (UniProt Q6P4R8), for which the “log2 mean competition ratio” value in experiment [1] (50 µM) was -0.177; in experiment [1] (200 µM) it was 0.0679; in experiment [2] (50 µM), 0.031; in experiment [2] (200 µM), 0.0243.

Consider NOCT C114 (UniProt Q9UK39), for which the entries for the “log2 mean competition ratio” value in experiment [1] (50 µM), in experiment [1] (200 µM) and in experiment [2] (200 µM) were -0.321, -0.123 and 0.0742, respectively.

Turning to “NBPF19;NBPF26;NBPF20;NBPF9;NBPF1;NBPF8;NBPF12;NBPF14;NBPF10 C589(C833)(C1077)(C1321)(C1565)(C1809)(C2053)(C2297)(C2541)(C2785)(C3029)(C3273)(C3517)(C3761);(C820);(C245)(C489)(C733)(C977)(C1221)(C1709)(C1953)(C2197)(C2441)(C2685)(C2929)(C3173)(C3417)(C3661)(C3905)(C4393)(C4562)(C4881)(C5125);(C1029);(C1132);(C825);(C1131)(C1375);(C520)(C839);(C860)(C1104)(C1348)(C1592)(C1836)(C2080)(C2324)(C2568)(C2812)(C3056)(C3300)(C3544)(C3713)”, the “log2 mean competition ratio” value in experiment [1] (50 µM) was 0.147; in experiment [1] (200 µM) it was 0.0821; in experiment [2] (50 µM) it was -0.0236; in experiment [2] (200 µM) it was -0.0887.

On to NOP56 C472 (UniProt O00567), for which the “log2 mean competition ratio” value is -0.141 in experiment [1] (50 µM), -0.326 in experiment [1] (200 µM), 0.574 in experiment [2] (50 µM) and -0.321 in experiment [2] (200 µM).
